Source: PubChem BioAssay AID1347076 (National Center for Advancing Translational Sciences (NCATS), 2019)
The campaign covered roughly 400,000 compounds. About 13,000 (3.2%) were called active. This list was built around the results that the source calls inconclusive (neither active nor inactive); the mix of calls is not that of the screen. The call rests on the fitted dose curve; in most records, active means well fitted cell-killing curve with a large enough effect; inconclusive means small, poorly fitted or top-dose-only effect, or effect the other way; inactive means flat fitted curve, though single readings scatter. Potencies beside an inconclusive call are fits to weak or partial responses and may not hold up.

test: qHTS assay for MDR1-selective chemotherapeutics: Primary screen using the drug-selected MDR subline cells KB-V1; details: KB-V1 MDR cells viability, CellTiter-Glo, 72 h; activity change, negative = cytotoxicity: at 46.1 µM (top of the series); further: nearly all actives have a fitted effect of over 60% in size
Procedure, shortened: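 qHTS viability screen in drug-selected KB-V1 MDR cells: 72 h compound treatment at 37 degrees C, ATP luminescence end point.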
On the % scale 0 is the no-effect control and ±100 the full control effect; potency means the concentration at half of the fitted maximal effect.

| SMILES | Potency | activity change, negative = cytotoxicity |
| --- | --- | --- |
| Cc1ccc(S(=O)(=O)N2CCN(C(=O)COC(=O)c3c(C)cc(C)cc3C)CC2)c(C)c1 | inconclusive: 10.3 µM [cytotoxic, partial curve] |  |
| Cc1cccc(CSc2ccc(S(=O)(=O)N3CCCC3)cn2)c1 | inactive |  |
| CC1(C)CC(=O)c2cc(-c3nc(-c4ccc(Cl)cc4)cs3)c(=O)n(-c3ccc(F)cc3)c2C1 | inactive |  |
| COc1ccc(Cn2ccc3nc(C)c(C(=O)NCc4ccc(C)cc4)cc3c2=O)cc1 | inactive |  |
| Cc1cc(CNC(=O)c2cc(-c3ccccc3)nc3ccccc23)nn1C | inconclusive: 4.61 µM [cytotoxic, partial curve, poor fit] |  |
| COC(=O)C1CCN(C(=O)COC(=O)c2cc(-c3ccccc3)nc3ccc(OC)cc23)CC1 | inactive |  |
| Cc1nn(CCCC(=O)Nc2cccnc2Cl)c(C)c1[N+](=O)[O-] | inconclusive: 29.1 µM [rising, single point] |  |
| Cc1nc(SCc2ccc([N+](=O)[O-])cc2)nc2ccccc12 | inconclusive: 20.6 µM [cytotoxic, single point] |  |
| CCOc1cc(/C=N/NC(=O)Cc2ccc(C(F)(F)F)cc2[N+](=O)[O-])ccc1O | inconclusive: 18.4 µM [cytotoxic, single point] |  |
| CC(C)NC(=O)CSc1nc2ccccc2c(=O)n1Cc1ccc(C(=O)NC(C)C)cc1 | inconclusive: 29.1 µM [rising, single point] |  |
| O=C(CCN1C(=O)/C(=C\c2ccccc2)SC1=S)N1CCOCC1 | inconclusive: 32.6 µM [cytotoxic, single point] |  |
| CC(=O)Nc1ccc(Nc2nc(C(F)(F)F)nc3c2nnn3Cc2ccccc2Cl)cc1 | inconclusive: 29.1 µM [cytotoxic, single point] |  |
| O=C(Nc1ccccc1Cl)N1CCN(c2ccccn2)CC1 | active: 16.4 µM |  |
| Cc1cccc(C)c1OCCn1c(C2CC(=O)N(Cc3ccc(F)cc3)C2)nc2ccccc21 (centres undefined) | inactive |  |
| O=[N+]([O-])c1cccc(-c2nnc3ccccn23)c1 | inconclusive: 11.6 µM [rising, partial curve, poor fit] |  |
| Cc1ccc(-c2nnc(N3CCN(c4ccccn4)CC3)c3ccccc23)cc1 | inconclusive: 29.1 µM [cytotoxic, single point] |  |
| CNS(=O)(=O)c1cc(-c2nnc(Nc3ccc(NC(C)=O)cc3)c3ccccc23)ccc1C | inconclusive: 20.6 µM [rising, partial curve, poor fit] |  |
| COc1cc2c(cc1OC)C(COc1ccc3c(C)cc(=O)oc3c1)N(C(=O)c1ccco1)CC2 (centres undefined) | inconclusive: 1.3 µM [cytotoxic, full curve, poor fit] |  |
| Nc1c2c(nc3ccccc13)N(C1CCCCC1)CC2 | inconclusive: 20.6 µM [cytotoxic, single point] |  |
| CCNS(=O)(=O)c1ccc(CCC(=O)Nc2ccccc2)cc1 | inactive |  |
| COC(=O)[C@]12CCCCC=C1N(Cc1ccc(Cl)cc1Cl)C(=O)[C@H](CC(=O)NCCCCc1ccccc1)C2 | inconclusive: 29.1 µM [cytotoxic, single point] |  |
| CCCNC(=O)c1ccc2nc(-c3ccccc3)c(-c3ccccc3)nc2c1 | inconclusive: 18.4 µM [cytotoxic, single point] |  |
| COc1ccc(/C=C/C(=O)Nc2ccc(OC)nc2)cc1 | inactive |  |

Record cards, from the list above.
CCCNC(=O)c1ccc2nc(-c3ccccc3)c(-c3ccccc3)nc2c1 as listed: Potency: inconclusive: 18.4 µM [cytotoxic, single point]
Cc1cc(CNC(=O)c2cc(-c3ccccc3)nc3ccccc23)nn1C as listed: Potency: inconclusive: 4.61 µM [cytotoxic, partial curve, poor fit]

Further results.

| SMILES | Potency | activity change, negative = cytotoxicity |
| --- | --- | --- |
| Cc1nnc(SCc2cc(=O)[nH]c(=S)[nH]2)s1 | inactive |  |
| CCSCCOC(=O)C1=C(C)NC(=O)NC1c1ccccc1 (centres undefined) | inconclusive: 32.6 µM [cytotoxic, single point] |  |
| Cn1cc([N+](=O)[O-])c(C(=O)Nc2ccc(C3CCCCC3)cc2)n1 | inconclusive: 18.4 µM [cytotoxic, single point] |  |
| COc1cc(/C=C(\C#N)C(=O)Nc2cccc3ncccc23)cc(OC)c1OC | inconclusive: 14.6 µM [cytotoxic, partial curve] |  |
| Cc1noc2ncnc(N3CCN(c4ccccc4F)CC3)c12 | inactive |  |
| Cc1ccc(C(=O)OCC(=O)NCc2ccc(Cl)cc2)s1 | inactive |  |
| Cc1ccc(Cl)cc1NC(=O)Cn1cc2c(n1)CCCCC2 | inactive |  |
| Cc1ccc(NC(=S)NCCc2ccccc2)c(C)c1 | inconclusive: 29.1 µM [cytotoxic, single point] |  |
| CC(C)C[C@H](NC(=O)c1nc[nH]c1C(=O)NCCCCCNC(=O)OC(C)(C)C)C(=O)OCc1ccccc1 | inconclusive: 29.1 µM [cytotoxic, single point] |  |
| O=C1CC2(CCN(C(=O)c3ccc(Cl)cc3)CC2)Oc2ccccc21 | inconclusive: 18.4 µM [cytotoxic, partial curve, poor fit] |  |
| COc1ccc(CN(C)C(=O)c2[nH]c(C)c(C(C)=O)c2C)c(OC)c1OC | inconclusive: 23.1 µM [cytotoxic, single point] |  |
| Cc1cccc2cc(C#N)c(NCCCNS(=O)(=O)c3ccc(Cl)cc3)nc12 | active: 9.2 µM |  |
| CN(CCCn1ccc(NC(=O)OCc2ccccc2)nc1=O)Cc1ccco1 | inconclusive: 16.4 µM [cytotoxic, partial curve] |  |
| O=C(N/N=C\c1cc(Br)cs1)C1COc2ccccc2O1 (centres undefined) | inconclusive: 29.1 µM [cytotoxic, single point] |  |
| Oc1ccccc1C1NN=C(c2ccccc2)S1 (centres undefined) | inconclusive: 29.1 µM [cytotoxic, single point] |  |
| Cc1cc(C)cc(C(=O)N2CCCCC2)c1 | inactive |  |
| O=c1[nH]c2ccc([N+](=O)[O-])cc2[nH]1 | inconclusive: 10.3 µM [cytotoxic, single point] |  |
| O=C(Nc1cccnc1)c1ccc(Cl)c(S(=O)(=O)N2CCCCC2)c1 | inconclusive: 29.1 µM [cytotoxic, single point] |  |
| c1ccc2sc(N3CCN(Cc4nnnn4CC4CCCO4)CC3)nc2c1 (centres undefined) | inconclusive: 23.1 µM [cytotoxic, single point] |  |
| O=[N+]([O-])c1ccc(Cl)c(C2Nc3cccc4cccc(c34)N2)c1 | inconclusive: 16.4 µM [cytotoxic, single point] |  |
| Cc1ccc(Cc2c(C)nc3c(-c4ccccc4)c(C)[nH]n3c2=O)cc1 | inconclusive: 2.59 µM [cytotoxic, full curve, poor fit] |  |
| CCOc1ccccc1CNC(=O)C1CCN(C(=O)c2sccc2-n2cccc2)CC1 | inactive |  |
| Cc1ccoc1C(=O)Nc1ccc(CC(=O)O)cc1 | inconclusive: 18.4 µM [cytotoxic, single point] |  |

| SMILES | Potency | activity change, negative = cytotoxicity |
| --- | --- | --- |
| O=[N+]([O-])c1ncccc1OCc1ccc(-c2ccccc2)cc1 | inconclusive: 23.1 µM [cytotoxic, single point] |  |
| Cc1ccc(NC(=S)c2nc3ccccc3[nH]2)c(C)c1 | inconclusive: 29.1 µM [cytotoxic, single point] |  |
| COc1ccc(NC(=O)CN(C)C(=O)C23CC4CC(CC(C4)C2)C3)cc1 | inconclusive: 10.3 µM [cytotoxic, partial curve] |  |
| O=C(/C=C/c1ccccc1)c1ccc2c(c1)OCCCCO2 | inactive |  |
| O=C(CSc1nc2ccccc2o1)Nc1ccc(N2CCOCC2)c(Cl)c1 | inconclusive: 29.1 µM [cytotoxic, partial curve, poor fit] |  |
| CCCCN(C)C(=O)c1cc2cc3ccc(OC)cc3nc2s1 | inconclusive: 7.31 µM [cytotoxic, partial curve] |  |
| O=C(Cn1cncn1)NCc1ccccc1Br |  | inconclusive: -9.32% |
| O=C(CN1CCCSc2ccccc21)N1CCN(S(=O)(=O)c2ccccc2)CC1 | inconclusive: 20.6 µM [cytotoxic, single point] |  |
| CC1CCN(c2nc3c(c(=O)n(C)c(=O)n3C)n2CCSc2nc3ccccc3s2)CC1 | active: 14.6 µM |  |
| O=C1Nc2ccccc2-n2nnnc2C1N1CCN(c2ccc(C(F)(F)F)cn2)CC1 (centres undefined) | active: 20.6 µM |  |
| CCN(CC)c1cc(C)c2cc(NC(=O)/C=C/c3ccccc3OC(C)C)ccc2n1 | inactive |  |
| COc1ccc(-c2ccnc(SCC(=O)N3CCOCC3)n2)cc1 | inconclusive: 18.4 µM [cytotoxic, partial curve, poor fit] |  |
| CCOCCc1nnc(NC(=O)C2CCN(C(=O)c3ccco3)CC2)s1 | inactive |  |
| CCN(CC)c1ccc(NS(=O)(=O)c2ccc(-c3coc(C)n3)cc2)c(C)c1 | inconclusive: 23.1 µM [cytotoxic, single point] |  |
| Fc1ccc(C(CNC(=S)NC2CCCCC2)N2CCOCC2)cc1 (centres undefined) | inconclusive: 13 µM [cytotoxic, partial curve] |  |
| CCOc1ccc(-c2cc(C(=O)NCCc3ccccc3)c3c(-c4ccc(C)cc4)[nH]nc3n2)cc1 | inconclusive: 23.1 µM [cytotoxic, single point] |  |
| CC(C)Oc1ccc(Br)cc1/C=N\NC(N)=S | inconclusive: 16.4 µM [cytotoxic, single point] |  |
| CCN(CC)c1cccc(OC(=O)c2cccnc2Cl)c1 | inactive |  |
| CCN1CCN(CCNC(=O)c2ccc(/C=C3/Sc4ccccc4N(Cc4ccccc4C)C3=O)cc2)CC1 | inactive |  |
| CCOC(=O)c1c(NC(=O)/C=C/c2ccc(OCC)cc2)sc2c1CCCC2 | inactive |  |
| COc1cc([C@H]2Oc3c(OC)cc(CCCO[C@@H]4O[C@H](CO)[C@@H](O)[C@H](O)[C@H]4O)cc3[C@@H]2CO)ccc1O | inconclusive: 18.4 µM [rising, single point] |  |
| CC1(C)CC(=O)c2ccc(OCc3ccc([N+](=O)[O-])cc3)cc2O1 | inconclusive: 23.1 µM [cytotoxic, single point] |  |
| Cc1ccc(C)c(N(CC(=O)NN=C2CCN(C)CC2)S(=O)(=O)c2ccccc2)c1 | inconclusive: 10.3 µM [rising, partial curve] |  |
